# According to US7892350B2, “Sacrificial agents for fly ash concrete” (Boral Material Technologies Inc., priority 2003, dated 2011):
# Experiment: Air entrainment in fresh concrete (ASTM C 231-97)
compound,measurement,setting,value
"OCCOc1ccccc1 [EGPE, Ethylene glycol phenyl ether]",Air,"Air 40 0.003, EGPE 0.100 % CM, PCA cement, 25% B1 fly ash, LOI […]",3.0%
same,Air,"Air 40 0.006, EGPE 0.100 % CM, PCA cement, 25% B1 fly ash, LOI […]",3.7%
same,Air,"Air 40 0.007, EGPE 0.017 % CM, PCA cement, 25% B1 fly ash, LOI […]",4.0%
same,Air,"Air 40 0.007, EGPE 0.017 % CM, PCA cement, no fly ash",8.7%
same,Air,"Air 40 0.007, EGPE 0.100 % CM, PCA cement, 25% B1 fly ash, LOI […]",5.7%
same,Air,"Air 40 0.007, EGPE 0.100 % CM, PCA cement, no fly ash",9.5%
same,Air,"Air 40 0.007, EGPE 0.200 % CM, PCA cement, 25% B1 fly ash, LOI […]",8.0%
same,Air,"Air 40 0.007, EGPE 0.200 % CM, PCA cement, no fly ash",10.0%
same,Air,"Air 40 0.008, EGPE 0.050 % CM, PCA cement, 25% B1 fly ash, LOI […]",5%
same,Air,"Air 40 0.008, EGPE […] CM, AC 0.587 % CM, PCA cement",7.9%
same,Air,"Air 40 0.008, EGPE […] CM, LW 0.107 % CM, PCA cement",9.6%
same,Air,"Air 40 0.008, EGPE […] CM, PCA cement, 25% B1 fly ash, LOI […]",4.4%
same,Air,"Air 40 0.008, EGPE […] CM, PCA cement, no fly ash",6.2%
same,Air,"Air 40 0.009, EGPE 0.100 % CM, PCA cement, 25% B1 fly ash, LOI […]",4.5%
same,Air,"Table 23: Air 40 0.003, EGPE 0.050 % CM, PCA cement, 25% B1 fly ash, LOI […]",2.9%
same,Air,"Table 23: Air 40 0.003, EGPE 0.100 % CM, PCA cement, 25% B1 fly ash, LOI […]",2.7%
same,Air,"Table 23: Air 40 0.003, EGPE 0.200 % CM, PCA cement, 25% B1 fly ash, LOI […]",5.3%
"COCCO [EGME, Ethylene glycol methyl ether]",Air,"Air 40 0.008, EGME 0.050 % CM, PCA cement, 25% B1 fly ash, LOI […]",4.2%
same,Air,"Air 40 0.008, EGME 0.050 % CM, PCA cement, no fly ash",7.2%
same,Air,"Air 40 0.008, EGME […] CM, PCA cement, 25% B1 fly ash, LOI […]",4.0%
Sodium Di-isopropopyl naphthalene sulfonate [ND],Air,"Air 40 0.005, ND 0.0016 % CM, PCC cement, 25% H2 fly ash, LOI 3.6%",3.8%
same,Air,"Air 40 0.005, ND 0.0016 % CM, PCC cement, 25% H2 fly ash, LOI […]",2.5%
